The values that follow come from the supplement of paper PMC10849652.

The chains behind the UniProt entries cited, without tags or fusion partners. Where a name states a change or a piece, a line headed by the entry shows the natural chain unless it says otherwise.
UniProt P10109: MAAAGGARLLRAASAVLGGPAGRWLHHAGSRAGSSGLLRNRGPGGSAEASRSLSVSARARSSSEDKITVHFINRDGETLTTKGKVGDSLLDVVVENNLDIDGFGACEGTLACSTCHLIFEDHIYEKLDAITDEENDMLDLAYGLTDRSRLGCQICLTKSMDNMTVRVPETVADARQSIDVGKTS
UniProt Q9NXK8: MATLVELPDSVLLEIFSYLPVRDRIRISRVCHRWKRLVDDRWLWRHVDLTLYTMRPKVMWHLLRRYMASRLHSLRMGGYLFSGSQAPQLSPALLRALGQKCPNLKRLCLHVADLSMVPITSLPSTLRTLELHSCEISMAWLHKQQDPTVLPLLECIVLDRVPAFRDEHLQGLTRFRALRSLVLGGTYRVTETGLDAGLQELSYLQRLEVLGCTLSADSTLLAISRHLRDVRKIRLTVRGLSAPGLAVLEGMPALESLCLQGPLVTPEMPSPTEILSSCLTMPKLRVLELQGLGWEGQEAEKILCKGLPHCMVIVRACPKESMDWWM
UniProt P31995: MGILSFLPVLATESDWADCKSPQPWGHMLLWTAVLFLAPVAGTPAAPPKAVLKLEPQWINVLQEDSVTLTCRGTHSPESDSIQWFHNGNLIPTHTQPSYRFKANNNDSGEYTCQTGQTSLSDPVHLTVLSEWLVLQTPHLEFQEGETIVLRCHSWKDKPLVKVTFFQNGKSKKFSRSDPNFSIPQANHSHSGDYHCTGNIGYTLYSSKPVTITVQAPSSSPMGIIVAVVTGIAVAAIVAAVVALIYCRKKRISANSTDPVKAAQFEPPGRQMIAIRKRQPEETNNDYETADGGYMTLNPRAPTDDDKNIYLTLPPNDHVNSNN
UniProt Q8NB91: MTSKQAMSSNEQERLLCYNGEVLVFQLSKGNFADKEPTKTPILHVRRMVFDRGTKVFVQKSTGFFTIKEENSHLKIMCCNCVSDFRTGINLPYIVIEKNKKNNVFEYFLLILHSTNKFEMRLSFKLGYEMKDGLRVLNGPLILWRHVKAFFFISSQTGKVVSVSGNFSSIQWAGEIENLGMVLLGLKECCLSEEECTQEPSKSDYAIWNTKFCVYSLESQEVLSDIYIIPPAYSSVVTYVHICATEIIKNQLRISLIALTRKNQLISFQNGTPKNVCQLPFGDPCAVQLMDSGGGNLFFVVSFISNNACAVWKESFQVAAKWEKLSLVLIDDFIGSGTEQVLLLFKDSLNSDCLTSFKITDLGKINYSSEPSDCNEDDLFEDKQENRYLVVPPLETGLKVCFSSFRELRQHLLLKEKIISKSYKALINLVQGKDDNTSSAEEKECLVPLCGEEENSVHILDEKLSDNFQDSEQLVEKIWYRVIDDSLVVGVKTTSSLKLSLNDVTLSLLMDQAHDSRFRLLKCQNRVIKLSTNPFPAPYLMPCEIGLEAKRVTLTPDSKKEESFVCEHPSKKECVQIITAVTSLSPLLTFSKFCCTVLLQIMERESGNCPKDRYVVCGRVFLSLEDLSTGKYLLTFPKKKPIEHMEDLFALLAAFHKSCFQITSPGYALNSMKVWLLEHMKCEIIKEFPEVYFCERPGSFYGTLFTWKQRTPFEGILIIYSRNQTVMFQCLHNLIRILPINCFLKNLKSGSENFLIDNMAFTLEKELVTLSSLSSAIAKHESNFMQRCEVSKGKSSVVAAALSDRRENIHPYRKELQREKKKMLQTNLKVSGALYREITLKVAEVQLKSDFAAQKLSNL
UniProt Q9Y5Y0: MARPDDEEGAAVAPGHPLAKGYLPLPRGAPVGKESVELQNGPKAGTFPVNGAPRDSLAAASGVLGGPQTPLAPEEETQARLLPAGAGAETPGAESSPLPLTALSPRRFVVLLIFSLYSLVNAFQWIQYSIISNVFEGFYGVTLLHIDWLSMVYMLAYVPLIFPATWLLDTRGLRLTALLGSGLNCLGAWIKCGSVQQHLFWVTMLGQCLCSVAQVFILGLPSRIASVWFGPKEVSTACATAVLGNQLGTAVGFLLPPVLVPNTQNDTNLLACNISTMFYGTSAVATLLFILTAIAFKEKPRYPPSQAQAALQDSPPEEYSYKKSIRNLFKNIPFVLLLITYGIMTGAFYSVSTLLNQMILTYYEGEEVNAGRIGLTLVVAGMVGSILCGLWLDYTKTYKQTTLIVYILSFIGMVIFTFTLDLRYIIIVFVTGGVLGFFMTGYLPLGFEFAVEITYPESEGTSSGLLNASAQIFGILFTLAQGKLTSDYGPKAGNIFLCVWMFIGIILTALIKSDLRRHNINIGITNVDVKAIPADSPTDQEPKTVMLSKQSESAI
UniProt Q9NUQ9: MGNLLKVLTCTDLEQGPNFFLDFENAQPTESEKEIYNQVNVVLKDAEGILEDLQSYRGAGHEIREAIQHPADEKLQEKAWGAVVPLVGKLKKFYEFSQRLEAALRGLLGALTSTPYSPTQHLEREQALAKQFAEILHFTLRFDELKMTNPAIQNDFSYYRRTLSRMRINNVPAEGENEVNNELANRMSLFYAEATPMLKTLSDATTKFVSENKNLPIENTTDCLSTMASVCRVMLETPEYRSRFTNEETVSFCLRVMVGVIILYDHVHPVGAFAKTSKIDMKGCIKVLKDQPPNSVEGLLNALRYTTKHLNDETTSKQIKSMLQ
UniProt P26885: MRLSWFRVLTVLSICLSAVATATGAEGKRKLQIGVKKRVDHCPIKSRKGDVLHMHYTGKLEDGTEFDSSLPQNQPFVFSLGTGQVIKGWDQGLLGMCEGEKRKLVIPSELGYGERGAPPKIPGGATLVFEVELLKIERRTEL
UniProt Q8WVX9: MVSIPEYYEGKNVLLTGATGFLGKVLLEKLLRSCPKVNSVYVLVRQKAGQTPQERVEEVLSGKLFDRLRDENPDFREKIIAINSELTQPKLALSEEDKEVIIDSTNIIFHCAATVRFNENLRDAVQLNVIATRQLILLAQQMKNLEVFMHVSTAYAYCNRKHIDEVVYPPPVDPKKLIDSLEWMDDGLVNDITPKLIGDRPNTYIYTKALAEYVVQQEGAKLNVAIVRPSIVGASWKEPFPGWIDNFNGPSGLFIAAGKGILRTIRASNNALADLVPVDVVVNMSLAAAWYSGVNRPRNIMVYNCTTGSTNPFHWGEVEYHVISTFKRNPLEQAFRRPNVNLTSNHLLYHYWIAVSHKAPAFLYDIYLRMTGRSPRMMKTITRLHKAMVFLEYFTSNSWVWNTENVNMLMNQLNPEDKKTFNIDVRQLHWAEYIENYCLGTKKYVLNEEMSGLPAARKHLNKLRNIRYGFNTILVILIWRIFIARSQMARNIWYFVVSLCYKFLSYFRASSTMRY
UniProt P07954: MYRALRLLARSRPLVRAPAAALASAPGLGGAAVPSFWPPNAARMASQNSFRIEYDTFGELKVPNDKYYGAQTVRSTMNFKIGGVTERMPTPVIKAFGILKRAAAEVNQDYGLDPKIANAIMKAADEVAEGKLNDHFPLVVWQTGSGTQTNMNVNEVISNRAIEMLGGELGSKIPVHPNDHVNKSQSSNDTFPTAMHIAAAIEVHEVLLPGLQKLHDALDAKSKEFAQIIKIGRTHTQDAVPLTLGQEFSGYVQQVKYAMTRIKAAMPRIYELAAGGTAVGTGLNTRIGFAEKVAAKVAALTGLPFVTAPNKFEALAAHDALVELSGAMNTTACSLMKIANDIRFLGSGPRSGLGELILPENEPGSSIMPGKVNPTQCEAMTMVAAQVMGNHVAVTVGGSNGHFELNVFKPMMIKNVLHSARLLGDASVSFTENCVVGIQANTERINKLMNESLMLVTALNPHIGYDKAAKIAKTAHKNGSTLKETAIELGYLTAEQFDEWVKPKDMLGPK
UniProt Q13045: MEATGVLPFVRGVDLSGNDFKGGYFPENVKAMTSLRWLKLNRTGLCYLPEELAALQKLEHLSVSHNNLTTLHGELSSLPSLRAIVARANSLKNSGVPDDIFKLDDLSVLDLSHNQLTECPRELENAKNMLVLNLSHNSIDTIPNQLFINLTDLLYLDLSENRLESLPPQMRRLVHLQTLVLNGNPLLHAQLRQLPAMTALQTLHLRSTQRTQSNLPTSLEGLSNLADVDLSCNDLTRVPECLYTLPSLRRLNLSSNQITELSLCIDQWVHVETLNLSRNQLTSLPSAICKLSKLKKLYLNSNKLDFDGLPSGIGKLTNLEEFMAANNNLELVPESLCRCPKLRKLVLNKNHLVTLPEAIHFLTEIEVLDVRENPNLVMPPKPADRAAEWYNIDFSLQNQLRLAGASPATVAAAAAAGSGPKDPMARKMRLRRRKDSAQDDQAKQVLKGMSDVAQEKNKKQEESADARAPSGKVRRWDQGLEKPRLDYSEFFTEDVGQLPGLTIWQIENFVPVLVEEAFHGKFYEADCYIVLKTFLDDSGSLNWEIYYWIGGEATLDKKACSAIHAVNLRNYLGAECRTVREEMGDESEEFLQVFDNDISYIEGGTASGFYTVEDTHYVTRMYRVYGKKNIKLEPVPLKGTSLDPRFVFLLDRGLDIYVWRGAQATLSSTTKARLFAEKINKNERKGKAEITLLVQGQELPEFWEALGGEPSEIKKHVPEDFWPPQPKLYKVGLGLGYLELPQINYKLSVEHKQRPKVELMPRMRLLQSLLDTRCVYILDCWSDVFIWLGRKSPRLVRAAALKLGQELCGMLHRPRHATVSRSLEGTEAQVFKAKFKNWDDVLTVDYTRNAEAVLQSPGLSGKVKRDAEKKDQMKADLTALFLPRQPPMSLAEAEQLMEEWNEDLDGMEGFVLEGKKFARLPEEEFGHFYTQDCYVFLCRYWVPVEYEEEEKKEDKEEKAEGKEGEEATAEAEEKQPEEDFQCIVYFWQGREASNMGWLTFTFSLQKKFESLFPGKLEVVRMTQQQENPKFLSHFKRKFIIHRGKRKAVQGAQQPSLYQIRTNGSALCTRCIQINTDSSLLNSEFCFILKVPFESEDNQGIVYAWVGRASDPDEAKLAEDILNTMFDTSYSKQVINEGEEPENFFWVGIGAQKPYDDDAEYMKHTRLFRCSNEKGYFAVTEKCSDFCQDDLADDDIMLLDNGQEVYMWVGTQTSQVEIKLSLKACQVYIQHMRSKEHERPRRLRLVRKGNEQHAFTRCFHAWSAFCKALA
UniProt Q8N3X1: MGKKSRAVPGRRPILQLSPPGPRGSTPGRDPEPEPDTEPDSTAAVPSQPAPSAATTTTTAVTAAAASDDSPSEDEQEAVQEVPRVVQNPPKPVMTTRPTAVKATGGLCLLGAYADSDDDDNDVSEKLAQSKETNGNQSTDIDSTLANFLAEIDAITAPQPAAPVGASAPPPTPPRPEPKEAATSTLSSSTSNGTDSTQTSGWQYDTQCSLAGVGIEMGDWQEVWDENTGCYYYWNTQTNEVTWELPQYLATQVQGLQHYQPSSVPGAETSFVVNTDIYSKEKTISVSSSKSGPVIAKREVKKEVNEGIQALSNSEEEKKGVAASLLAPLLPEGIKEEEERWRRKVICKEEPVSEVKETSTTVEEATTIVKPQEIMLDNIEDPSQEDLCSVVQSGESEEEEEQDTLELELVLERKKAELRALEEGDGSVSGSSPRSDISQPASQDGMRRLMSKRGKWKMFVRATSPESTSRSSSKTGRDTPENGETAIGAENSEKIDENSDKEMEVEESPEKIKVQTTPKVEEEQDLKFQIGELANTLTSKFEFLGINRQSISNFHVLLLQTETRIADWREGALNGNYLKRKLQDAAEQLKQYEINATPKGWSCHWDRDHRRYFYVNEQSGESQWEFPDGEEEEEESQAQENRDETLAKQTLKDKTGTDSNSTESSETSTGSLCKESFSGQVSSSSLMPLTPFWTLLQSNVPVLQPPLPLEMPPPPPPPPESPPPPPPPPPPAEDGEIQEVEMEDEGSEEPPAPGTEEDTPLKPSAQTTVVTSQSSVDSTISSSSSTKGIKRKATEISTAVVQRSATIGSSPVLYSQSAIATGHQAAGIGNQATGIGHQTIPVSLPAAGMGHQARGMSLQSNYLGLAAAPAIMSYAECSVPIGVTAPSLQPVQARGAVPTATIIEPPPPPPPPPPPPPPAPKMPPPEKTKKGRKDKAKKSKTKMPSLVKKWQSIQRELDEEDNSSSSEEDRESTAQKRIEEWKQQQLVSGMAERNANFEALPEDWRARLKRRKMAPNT
UniProt Q96CP2: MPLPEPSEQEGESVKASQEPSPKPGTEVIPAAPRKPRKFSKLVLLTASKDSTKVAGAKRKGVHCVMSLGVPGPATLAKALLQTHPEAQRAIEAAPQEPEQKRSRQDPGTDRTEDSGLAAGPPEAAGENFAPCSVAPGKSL
UniProt Q5HYJ3: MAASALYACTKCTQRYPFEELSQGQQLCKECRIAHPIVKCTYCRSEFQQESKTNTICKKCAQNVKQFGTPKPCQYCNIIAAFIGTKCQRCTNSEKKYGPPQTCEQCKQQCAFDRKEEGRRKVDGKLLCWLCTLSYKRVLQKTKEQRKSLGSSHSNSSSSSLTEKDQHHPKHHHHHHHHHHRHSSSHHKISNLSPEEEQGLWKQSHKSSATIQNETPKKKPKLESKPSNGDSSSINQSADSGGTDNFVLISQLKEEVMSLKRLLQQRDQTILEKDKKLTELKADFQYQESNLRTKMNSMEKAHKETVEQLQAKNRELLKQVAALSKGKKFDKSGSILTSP

The list shows a part of the results.

Compound in this assay: CCN(CCCOc1ccc2c(Nc3cc(CC(=O)Nc4cccc(F)c4)[nH]n3)ncnc2c1)CCOP(=O)(O)O [barasertib]
In words: log2 fold change, soluble protein after heating vs DMSO (PISA); higher = thermal stabilisation; K562 cells, 10 uM, 30 min; active = over 0.2 and 3.5 SD of the protein, either way, in both replicates (recomputed). The essentials:
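K562 cells at 2×10^6 cells/mL were exposed to 10 μM compound for 30 min, then aliquots were heated for 3 min across 48°C-58°C, pooled, and extracted in PBS containing 0.5% NP-40 at 4°C. The supernatant after 21,000xg for 90 min was taken as soluble protein and measured by TMTpro 16plex LC-MS/MS with channel sums equalised. Thermal stability is reported relative to control samples, with values from duplicates. Fold changes are given on a log2 scale.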
Consider FDX1 (UniProt P10109), for which the log2 fold change was inactive: 0.069. Consider FBXL12 (UniProt Q9NXK8), for which the log2 fold change is inactive: 0.037. FKBPL (UniProt Q9UIM3): the log2 fold change is inactive: 0.023. FCGR2C (UniProt P31995): the log2 fold change was inactive: 0.01. As for FANCB (UniProt Q8NB91), the figure is inactive: 0.102. The same measure for FIP1L1 (UniProt Q6UN15): inactive: -0.057. As for FLVCR1 (UniProt Q9Y5Y0), the figure is inactive: 0.007; as for FAM49B (UniProt Q9NUQ9), inactive: -0.001.

In the case of FAM210A (UniProt Q96ND0), the log2 fold change was inactive: -0.015. Take FBXO30 (UniProt Q8TB52): the log2 fold change is inactive: 0.026. As for FKBP2 (UniProt P26885), the figure is inactive: 0.016; as for FKBP15 (UniProt Q5T1M5), inactive: 0.081.

For the target FAR1 (UniProt Q8WVX9), the log2 fold change was inactive: 0.043. On to FH (UniProt P07954), for which the log2 fold change was inactive: -0.01. As for FLII (UniProt Q13045), the figure is inactive: 0.026. As for FNBP4 isoform 2 (UniProt Q8N3X1), the figure is inactive: -0.017; as for FAM98B (UniProt Q52LJ0), inactive: -0.013. As for FBXL20 (UniProt Q96IG2), the figure is inactive: 0.041. Turning to FBXL18 isoform 4 (UniProt Q96ME1), the log2 fold change was inactive: 0.037. The same measure for FLYWCH2 (UniProt Q96CP2): inactive: -0.004; for FAM76B (UniProt Q5HYJ3): inactive: -0.028. For FASN (UniProt P49327), the log2 fold change was inactive: 0.007. The same measure for FKBP1A (UniProt P62942): inactive: -0.064.
